Assay results published in patent US8124380B2 (priority 2003, dated 2012).

Experiments:
[1] = general procedure: peptide synthesis; Fmoc Pal Peg Ps resin; conditions: whole synthesis, scale 0.1 mmol

Substance | conjugation yield (peptide synthesis; conjugation step) [%] | final HPLC purity (peptide synthesis; conjugation step, 230 nm) [% pure] | conjugation yield (peptide synthesis; conjugation step, run 1) [%] | conjugation yield (peptide synthesis; conjugation step, run 2) [%] | further results
Maleimido Activated PADRE Lys | – | – | – | – | crude mass [1]: 157 mg; isolated mass [1]: 107 mg; isolated yield [1]: 61%; final HPLC purity (peptide synthesis; whole synthesis, 214 nm): 94% pure
PADRE (thiomethyl)carbonylaminoethyl α-L-rhamnopyranosyl-(1→2)-α-L-rhamnopyranosyl-(1→3)-[α-D-glucopyranosyl-(1→4)]-α-L-rhamnopyranosyl-(1→3)-2-acetamido-2-deoxy-β-D-glucopyranosyl-(1→2)-α-L-rhamnopyranosyl-(1→2)-α-L-rhamnopyranosyl-(1→3)-[α-D-glucopyranosyl-(1→4)]-α-L-rhamnopyranosyl-(1→3)-2-acetamido-2-deoxy-β-D-glucopyranoside | 44 | 100 | – | – | –
PADRE (thiomethyl)carbonylaminoethyl α-L-rhamnopyranosyl-(1→2)-α-L-rhamnopyranosyl-(1→3)-[α-D-glucopyranosyl-(1→4)]-α-L-rhamnopyranosyl-(1→3)-2-acetamido-2-deoxy-β-D-glucopyranosyl-(1→2)-α-L-rhamnopyranosyl-(1→2)-α-L-rhamnopyranosyl-(1→3)-[α-D-glucopyranosyl-(1→4)]-α-L-rhamnopyranosyl-(1→3)-2-acetamido-2-deoxy-β-D-glucopyranosyl-(1→2)-α-L-rhamnopyranosyl-(1→2)-α-L-rhamnopyranosyl-(1→3)-[α-D-glucopyranosyl-(1→4)]-α-L-rhamnopyranosyl-(1→3)-2-acetamido-2-deoxy-β-D-glucopyranoside | 67 | 100 | – | – | –
PADRE-Lys-(thiomethyl)carbonylaminoethyl α-D-glucopyranosyl-(1→4)-α-L-rhamnopyranosyl-(1→3)-2-acetamido-2-deoxy-β-D-glucopyranoside | – | 100 | 58 | 62 | –
PADRE-Lys-(thiomethyl)carbonylaminoethyl α-L-rhamnopyranosyl-(1→2)-α-L-rhamnopyranosyl-(1→3)-[α-D-glucopyranosyl)-(1→4)]-(α-L-rhamnopyranosyl-(1→3)-2-acetamido-2-deoxy-β-D-glucopyranoside | 46 | 100 | – | – | –
PADRE-conjugate of 2-aminoethyl hexasaccharide (neoglycopeptide) | – | 100 | 58 | 53 | –
